These results are taken from patent US20020159972A1 (PENN STATE RESEARCH FOUNDATION, published 2002).

Sequences of proteins named here, by UniProt entry; tags and fusion partners are left off. A change or cut given only in a name is not applied to a line headed by its entry.
UniProt P35225: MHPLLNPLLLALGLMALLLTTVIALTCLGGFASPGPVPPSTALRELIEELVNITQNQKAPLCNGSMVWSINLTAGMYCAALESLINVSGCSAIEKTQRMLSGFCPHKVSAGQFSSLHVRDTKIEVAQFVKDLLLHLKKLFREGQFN

Results are given in words; binding and its absence hold for the method and conditions named. Some binding calls cover weakened binding; strength is not graded here.

For assay [1], the target named is T1, restricted (IL4 independent) hIL13 receptor (human) (UniProt Q14627).
T1 sequence (looked up): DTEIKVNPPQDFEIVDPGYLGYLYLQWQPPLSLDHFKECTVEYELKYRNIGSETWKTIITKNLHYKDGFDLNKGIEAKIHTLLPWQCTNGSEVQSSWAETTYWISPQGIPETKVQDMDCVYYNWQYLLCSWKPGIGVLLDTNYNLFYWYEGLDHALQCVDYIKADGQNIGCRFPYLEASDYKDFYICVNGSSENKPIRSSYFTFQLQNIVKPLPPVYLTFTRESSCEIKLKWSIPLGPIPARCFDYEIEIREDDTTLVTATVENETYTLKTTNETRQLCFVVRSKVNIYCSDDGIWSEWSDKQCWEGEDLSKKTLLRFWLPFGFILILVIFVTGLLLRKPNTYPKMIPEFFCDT
In words: autoradiography on GBM tissue sections; unlabeled competitor against ^125I-hIL13.E13Y.

Assay [2] concerns the target T1, restricted (IL4 independent) hIL13 receptor (human). In words: autoradiography on GBM tissue sections.

On to “native hIL13 (mature human interleukin 13) (from UniProt P35225 33-146) (ligand)”, for which the binding entry in assay [1] and in assay [2] was “binds” in each case.

On to “hIL13.E13Y (from UniProt P35225 33-146) (ligand)”, for which the binding result in assay [1] was “binds”.

With “^125I-hIL13.E13Y (from UniProt P35225 33-146) (ligand)”, the binding result in assay [2] was “binds”.
